Results as given in the supplement of paper PMC12823440, “Inhibitors supercharge kinase turnover through native proteolytic circuits” (Nature, 2025).
Where a name gives a salt, the structure may show the parent alone. Some of the results follow. Hit calls seldom repeat between salt and free forms of one compound.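 Kinases were expressed as nanoluciferase fusions in K562 cells and luminescence was read every 4 h between 2 and 18 h as percent of control, DMSO set to 100% and a positive control to 0%. A time point counts as decreased when the signal drops significantly (2 sigma). The hit call is the authors' own, does not follow from the count of time points alone, and its rule is not shown.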

Amino acid sequences for entries named in this document (tags omitted). A change or cut given only in a name is not applied to a line headed by its entry.
UniProt P50613: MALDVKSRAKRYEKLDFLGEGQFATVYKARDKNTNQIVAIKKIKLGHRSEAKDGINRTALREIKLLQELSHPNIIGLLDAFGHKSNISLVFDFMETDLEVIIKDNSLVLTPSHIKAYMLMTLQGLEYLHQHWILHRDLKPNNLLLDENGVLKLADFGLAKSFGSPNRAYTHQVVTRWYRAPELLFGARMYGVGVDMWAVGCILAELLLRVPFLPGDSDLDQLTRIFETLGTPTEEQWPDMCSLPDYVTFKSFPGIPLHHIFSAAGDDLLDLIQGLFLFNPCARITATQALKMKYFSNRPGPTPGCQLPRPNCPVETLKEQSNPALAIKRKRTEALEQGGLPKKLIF
UniProt P50750, whole entry: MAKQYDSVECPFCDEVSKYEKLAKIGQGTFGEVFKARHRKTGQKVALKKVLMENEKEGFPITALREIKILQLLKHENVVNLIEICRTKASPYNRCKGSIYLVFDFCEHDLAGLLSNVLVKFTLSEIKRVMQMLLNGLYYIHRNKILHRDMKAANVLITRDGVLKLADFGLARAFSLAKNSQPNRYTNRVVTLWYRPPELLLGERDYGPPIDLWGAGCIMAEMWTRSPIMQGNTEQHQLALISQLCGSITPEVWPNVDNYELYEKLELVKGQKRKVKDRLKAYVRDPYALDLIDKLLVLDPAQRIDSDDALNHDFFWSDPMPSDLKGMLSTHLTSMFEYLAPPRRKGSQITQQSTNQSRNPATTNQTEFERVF
UniProt O96017, whole entry: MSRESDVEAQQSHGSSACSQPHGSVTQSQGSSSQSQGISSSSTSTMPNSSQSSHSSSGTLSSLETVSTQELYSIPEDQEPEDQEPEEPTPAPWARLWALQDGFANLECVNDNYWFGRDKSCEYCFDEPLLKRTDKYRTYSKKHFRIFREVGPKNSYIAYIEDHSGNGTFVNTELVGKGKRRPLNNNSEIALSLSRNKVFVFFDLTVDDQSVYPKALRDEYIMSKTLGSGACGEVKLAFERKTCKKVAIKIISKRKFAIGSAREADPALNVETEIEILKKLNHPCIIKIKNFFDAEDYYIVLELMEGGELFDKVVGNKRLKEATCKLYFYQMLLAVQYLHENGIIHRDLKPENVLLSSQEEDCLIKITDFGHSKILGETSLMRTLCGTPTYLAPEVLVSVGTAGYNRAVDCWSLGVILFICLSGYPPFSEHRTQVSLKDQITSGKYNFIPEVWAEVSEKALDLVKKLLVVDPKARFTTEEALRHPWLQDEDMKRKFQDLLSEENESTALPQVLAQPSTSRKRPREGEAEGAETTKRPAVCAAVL
UniProt P41240: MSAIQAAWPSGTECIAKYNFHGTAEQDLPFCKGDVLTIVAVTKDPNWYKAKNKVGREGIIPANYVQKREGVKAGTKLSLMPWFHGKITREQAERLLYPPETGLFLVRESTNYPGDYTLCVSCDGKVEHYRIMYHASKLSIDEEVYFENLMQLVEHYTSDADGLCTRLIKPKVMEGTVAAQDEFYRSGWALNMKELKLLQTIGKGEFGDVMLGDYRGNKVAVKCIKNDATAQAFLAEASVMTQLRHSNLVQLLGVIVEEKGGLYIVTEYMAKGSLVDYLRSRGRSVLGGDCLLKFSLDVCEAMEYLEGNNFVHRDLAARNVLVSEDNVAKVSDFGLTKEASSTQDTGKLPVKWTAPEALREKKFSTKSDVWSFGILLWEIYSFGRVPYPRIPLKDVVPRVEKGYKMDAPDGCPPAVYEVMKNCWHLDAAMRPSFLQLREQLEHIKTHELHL
UniProt P48729: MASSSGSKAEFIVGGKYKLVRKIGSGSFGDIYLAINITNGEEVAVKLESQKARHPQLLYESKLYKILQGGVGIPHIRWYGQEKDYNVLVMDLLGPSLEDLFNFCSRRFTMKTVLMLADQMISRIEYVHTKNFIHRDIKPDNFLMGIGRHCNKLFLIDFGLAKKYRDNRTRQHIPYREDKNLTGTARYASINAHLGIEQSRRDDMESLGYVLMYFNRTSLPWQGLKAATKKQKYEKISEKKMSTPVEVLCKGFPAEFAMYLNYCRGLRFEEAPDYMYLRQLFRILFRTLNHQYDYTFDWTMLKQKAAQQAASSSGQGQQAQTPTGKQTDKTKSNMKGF
UniProt Q08345: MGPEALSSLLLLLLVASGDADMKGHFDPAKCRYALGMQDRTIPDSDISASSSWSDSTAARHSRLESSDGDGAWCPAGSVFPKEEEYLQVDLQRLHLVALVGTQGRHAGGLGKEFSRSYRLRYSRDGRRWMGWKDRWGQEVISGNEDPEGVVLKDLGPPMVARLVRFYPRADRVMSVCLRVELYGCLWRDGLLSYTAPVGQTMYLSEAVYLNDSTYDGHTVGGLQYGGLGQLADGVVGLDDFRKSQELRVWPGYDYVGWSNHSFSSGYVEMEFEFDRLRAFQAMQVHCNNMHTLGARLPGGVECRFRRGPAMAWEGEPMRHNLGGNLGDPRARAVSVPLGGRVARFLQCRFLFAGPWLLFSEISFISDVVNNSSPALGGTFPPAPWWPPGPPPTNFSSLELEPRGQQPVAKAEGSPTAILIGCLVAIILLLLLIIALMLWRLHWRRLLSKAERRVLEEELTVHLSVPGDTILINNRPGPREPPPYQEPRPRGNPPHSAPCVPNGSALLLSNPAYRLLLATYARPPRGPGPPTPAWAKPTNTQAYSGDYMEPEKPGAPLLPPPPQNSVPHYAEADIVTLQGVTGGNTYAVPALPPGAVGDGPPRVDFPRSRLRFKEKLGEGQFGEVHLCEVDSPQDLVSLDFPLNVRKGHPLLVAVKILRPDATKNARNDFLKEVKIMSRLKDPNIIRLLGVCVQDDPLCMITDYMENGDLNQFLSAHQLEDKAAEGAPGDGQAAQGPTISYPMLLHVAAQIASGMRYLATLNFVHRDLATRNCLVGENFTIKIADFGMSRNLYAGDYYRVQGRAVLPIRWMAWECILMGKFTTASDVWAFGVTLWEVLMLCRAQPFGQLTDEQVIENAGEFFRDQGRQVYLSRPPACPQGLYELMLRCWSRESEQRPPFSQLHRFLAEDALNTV
UniProt Q9Y463, whole entry, looked up: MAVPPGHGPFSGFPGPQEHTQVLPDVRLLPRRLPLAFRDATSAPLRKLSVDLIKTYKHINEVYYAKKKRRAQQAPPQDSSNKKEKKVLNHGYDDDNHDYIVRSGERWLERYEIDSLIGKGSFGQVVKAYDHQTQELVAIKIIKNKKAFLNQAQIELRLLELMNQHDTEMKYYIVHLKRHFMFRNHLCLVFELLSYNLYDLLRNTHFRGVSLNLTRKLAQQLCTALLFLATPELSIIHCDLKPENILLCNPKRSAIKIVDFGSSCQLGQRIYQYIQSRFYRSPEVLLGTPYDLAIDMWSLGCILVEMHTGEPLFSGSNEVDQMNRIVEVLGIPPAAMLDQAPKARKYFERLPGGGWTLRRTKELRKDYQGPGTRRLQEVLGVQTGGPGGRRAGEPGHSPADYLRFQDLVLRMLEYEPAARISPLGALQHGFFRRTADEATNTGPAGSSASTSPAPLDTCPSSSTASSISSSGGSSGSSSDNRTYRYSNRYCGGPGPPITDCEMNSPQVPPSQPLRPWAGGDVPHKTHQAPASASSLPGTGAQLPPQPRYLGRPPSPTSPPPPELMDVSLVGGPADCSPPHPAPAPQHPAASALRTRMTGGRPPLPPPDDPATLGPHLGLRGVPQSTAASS
UniProt Q92630: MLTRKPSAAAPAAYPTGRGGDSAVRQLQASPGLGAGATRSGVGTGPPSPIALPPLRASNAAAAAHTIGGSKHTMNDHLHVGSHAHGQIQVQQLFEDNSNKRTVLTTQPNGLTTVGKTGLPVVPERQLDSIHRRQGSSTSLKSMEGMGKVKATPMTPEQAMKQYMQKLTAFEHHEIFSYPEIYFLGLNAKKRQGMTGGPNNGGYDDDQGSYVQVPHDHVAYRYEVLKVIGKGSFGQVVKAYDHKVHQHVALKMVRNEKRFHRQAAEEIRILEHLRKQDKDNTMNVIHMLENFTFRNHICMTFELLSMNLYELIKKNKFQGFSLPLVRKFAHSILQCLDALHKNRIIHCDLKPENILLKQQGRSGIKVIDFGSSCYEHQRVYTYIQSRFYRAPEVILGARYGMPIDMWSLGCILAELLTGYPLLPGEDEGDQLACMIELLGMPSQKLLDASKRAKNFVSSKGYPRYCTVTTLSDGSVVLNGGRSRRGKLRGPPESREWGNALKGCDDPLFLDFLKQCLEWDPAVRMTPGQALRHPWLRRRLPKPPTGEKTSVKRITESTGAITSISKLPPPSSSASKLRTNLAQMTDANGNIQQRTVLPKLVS
UniProt P29317, whole entry: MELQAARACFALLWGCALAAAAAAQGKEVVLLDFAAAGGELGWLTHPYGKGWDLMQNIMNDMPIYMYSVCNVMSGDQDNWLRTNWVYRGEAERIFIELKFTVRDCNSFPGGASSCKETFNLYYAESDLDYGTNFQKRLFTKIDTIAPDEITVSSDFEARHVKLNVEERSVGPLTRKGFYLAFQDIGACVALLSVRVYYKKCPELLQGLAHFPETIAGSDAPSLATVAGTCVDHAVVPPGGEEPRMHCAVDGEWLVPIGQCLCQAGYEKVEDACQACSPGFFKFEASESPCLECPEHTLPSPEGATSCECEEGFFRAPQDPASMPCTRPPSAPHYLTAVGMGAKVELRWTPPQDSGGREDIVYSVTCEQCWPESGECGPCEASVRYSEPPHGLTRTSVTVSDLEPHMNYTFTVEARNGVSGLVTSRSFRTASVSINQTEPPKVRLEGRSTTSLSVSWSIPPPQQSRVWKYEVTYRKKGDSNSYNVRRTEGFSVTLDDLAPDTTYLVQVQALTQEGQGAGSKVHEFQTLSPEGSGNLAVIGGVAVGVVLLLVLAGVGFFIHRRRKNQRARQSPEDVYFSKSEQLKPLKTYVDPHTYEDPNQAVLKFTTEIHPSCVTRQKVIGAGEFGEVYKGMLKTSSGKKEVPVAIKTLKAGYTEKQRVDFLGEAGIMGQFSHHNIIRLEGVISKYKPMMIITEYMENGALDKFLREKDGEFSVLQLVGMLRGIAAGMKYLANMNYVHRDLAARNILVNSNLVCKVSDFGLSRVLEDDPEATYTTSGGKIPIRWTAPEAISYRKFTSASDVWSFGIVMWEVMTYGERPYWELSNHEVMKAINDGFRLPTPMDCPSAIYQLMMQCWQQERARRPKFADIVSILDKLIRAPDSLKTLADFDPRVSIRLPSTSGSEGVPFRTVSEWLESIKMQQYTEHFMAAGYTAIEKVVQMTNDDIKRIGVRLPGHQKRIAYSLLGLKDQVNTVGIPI
UniProt P21860, whole entry: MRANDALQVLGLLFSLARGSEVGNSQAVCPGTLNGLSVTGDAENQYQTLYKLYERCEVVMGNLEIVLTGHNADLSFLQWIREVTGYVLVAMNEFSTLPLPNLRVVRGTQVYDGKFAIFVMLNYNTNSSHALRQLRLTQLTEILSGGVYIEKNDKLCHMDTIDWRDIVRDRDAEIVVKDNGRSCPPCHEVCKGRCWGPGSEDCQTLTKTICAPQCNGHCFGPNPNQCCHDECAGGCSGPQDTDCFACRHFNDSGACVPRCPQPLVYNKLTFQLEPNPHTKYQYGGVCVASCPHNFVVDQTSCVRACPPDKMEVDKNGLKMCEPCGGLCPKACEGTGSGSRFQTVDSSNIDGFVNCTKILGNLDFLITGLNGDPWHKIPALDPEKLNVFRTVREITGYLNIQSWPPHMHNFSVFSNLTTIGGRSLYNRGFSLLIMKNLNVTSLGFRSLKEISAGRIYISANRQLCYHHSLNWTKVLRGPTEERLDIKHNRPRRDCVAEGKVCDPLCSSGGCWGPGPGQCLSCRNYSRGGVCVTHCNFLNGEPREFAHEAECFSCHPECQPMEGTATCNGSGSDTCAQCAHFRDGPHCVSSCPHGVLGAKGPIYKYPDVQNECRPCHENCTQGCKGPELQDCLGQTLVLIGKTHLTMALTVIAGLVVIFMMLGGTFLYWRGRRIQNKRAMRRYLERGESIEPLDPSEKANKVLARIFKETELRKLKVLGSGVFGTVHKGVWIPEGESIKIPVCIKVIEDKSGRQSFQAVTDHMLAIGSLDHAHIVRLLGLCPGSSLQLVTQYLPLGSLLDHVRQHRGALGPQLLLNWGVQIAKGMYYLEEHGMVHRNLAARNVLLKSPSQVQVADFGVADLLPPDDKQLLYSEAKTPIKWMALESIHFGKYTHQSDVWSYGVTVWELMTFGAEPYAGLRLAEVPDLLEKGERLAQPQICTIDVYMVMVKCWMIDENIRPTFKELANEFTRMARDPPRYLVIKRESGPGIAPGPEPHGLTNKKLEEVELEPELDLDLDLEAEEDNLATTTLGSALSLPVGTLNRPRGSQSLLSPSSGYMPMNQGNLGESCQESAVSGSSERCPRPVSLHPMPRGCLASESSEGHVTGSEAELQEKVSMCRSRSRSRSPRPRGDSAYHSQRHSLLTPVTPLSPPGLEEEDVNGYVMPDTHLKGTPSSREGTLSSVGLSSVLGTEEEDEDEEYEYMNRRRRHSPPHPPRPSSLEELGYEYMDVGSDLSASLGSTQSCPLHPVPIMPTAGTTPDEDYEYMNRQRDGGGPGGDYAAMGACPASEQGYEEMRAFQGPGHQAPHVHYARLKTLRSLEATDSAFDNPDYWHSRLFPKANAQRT

How the values were obtained:
Experiment in all cases: kinase-Nluc reporter destabilization hit call (1 = scored as downregulated) (binary); higher = compound decreases kinase abundance
Conditions in all cases: K562; 2-18 h
CDK7 = CDK7 (UniProt P50613)
CDK9 = CDK9 (UniProt P50750)
CHEK2 = CHEK2 (UniProt O96017)
CSF1R = CSF1R (UniProt P07333)
CSK = CSK (UniProt P41240)
CSNK1A1 = CSNK1A1 (UniProt P48729)
CSNK1D = CSNK1D (UniProt P48730)
DDR1 = DDR1 (UniProt Q08345)
DYRK1B = DYRK1B (UniProt Q9Y463)
DYRK2 = DYRK2 (UniProt Q92630)
EGFR = EGFR (UniProt P00533)
EGFR_G719S = EGFR_G719S (UniProt P00533)
EGFR_G719S_T790M = EGFR_G719S_T790M (UniProt P00533)
EGFR_L718V = EGFR_L718V (UniProt P00533)
EGFR_L858R = EGFR_L858R (UniProt P00533)
EGFR_L861Q = EGFR_L861Q (UniProt P00533)
EGFR_T790M = EGFR_T790M (UniProt P00533)
EPHA2 = EPHA2 (UniProt P29317)
ERBB3 = ERBB3 (UniProt P21860)
[1] = target: ERBB4_R711C (clone: ERBB4_mut) (UniProt Q15303)

Measured: kinase-Nluc reporter destabilization hit call

COc1cc(F)c(F)c(Nc2ccc(I)cc2F)c1NS(=O)(=O)C1(C[C@H](O)CO)CC1 [Refametinib] (10 µM)
inactive: CDK7 = 0 | CDK9 = 0 | CHEK2 = 0 | CSF1R 0 | CSK 0 | CSNK1A1 = 0 | CSNK1D 0 | DDR1 = 0 | DYRK1B 0 | DYRK2 = 0 | EGFR 0 | EGFR_G719S 0 | EGFR_G719S_T790M 0 | EGFR_L718V 0 | EGFR_L858R 0 | EGFR_L861Q 0 | EGFR_T790M 0 | EPHA2 = 0 | ERBB3 = 0 | [1] 0

CNC(=O)Nc1ccc(-c2cc(-c3ccnc(Nc4ccc(C)c(S(=O)(=O)N(C)C)c4)n3)ccn2)cc1 [hSMG-1 inhibitor 11e] (2.5 µM)
inactive: CDK7 = 0 | CDK9 = 0 | CHEK2 = 0 | CSF1R 0 | CSK 0 | CSNK1A1 = 0 | CSNK1D 0 | DDR1 = 0 | DYRK1B 0 | DYRK2 = 0 | EGFR 0 | EGFR_G719S 0 | EGFR_G719S_T790M 0 | EGFR_L718V 0 | EGFR_L858R 0 | EGFR_L861Q 0 | EGFR_T790M 0 | EPHA2 = 0 | ERBB3 = 0 | [1] 0

N#Cc1ccc2ncnc(NC3CCC(N4CCOCC4)CC3)c2c1 (stereo not given) (10 µM)
inactive: CDK7 = 0 | CDK9 = 0 | CHEK2 = 0 | CSF1R 0 | CSK 0 | CSNK1A1 = 0 | CSNK1D 0 | DDR1 = 0 | DYRK1B 0 | DYRK2 = 0 | EGFR 0 | EGFR_G719S 0 | EGFR_G719S_T790M 0 | EGFR_L718V 0 | EGFR_L858R 0 | EGFR_L861Q 0 | EGFR_T790M 0 | EPHA2 = 0 | ERBB3 = 0 | [1] 0

CS(=O)(=O)c1ccc(-c2noc(C(F)(F)F)c2-c2ccccc2)cc1 (10 µM)
inactive: CDK7 = 0 | CDK9 = 0 | CHEK2 = 0 | CSF1R 0 | CSK 0 | CSNK1A1 = 0 | CSNK1D 0 | DDR1 = 0 | DYRK1B 0 | DYRK2 = 0 | EGFR 0 | EGFR_G719S 0 | EGFR_G719S_T790M 0 | EGFR_L718V 0 | EGFR_L858R 0 | EGFR_L861Q 0 | EGFR_T790M 0 | EPHA2 = 0 | ERBB3 = 0 | [1] 0

CO[C@H]1C[C@@H]2CC[C@@H](C)[C@@](O)(O2)C(=O)C(=O)N2CCCC[C@H]2C(=O)O[C@H]([C@H](C)C[C@@H]2CC[C@@H](O)[C@H](OC)C2)CC(=O)[C@H](C)/C=C(\C)[C@@H](O)[C@@H](OC)C(=O)[C@H](C)C[C@H](C)/C=C/C=C/C=C/1C [Rapamycin] (10 µM)
inactive: CDK7 = 0 | CDK9 = 0 | CHEK2 = 0 | CSF1R 0 | CSK 0 | CSNK1A1 = 0 | CSNK1D 0 | DDR1 = 0 | DYRK1B 0 | DYRK2 = 0 | EGFR 0 | EGFR_G719S 0 | EGFR_G719S_T790M 0 | EGFR_L718V 0 | EGFR_L858R 0 | EGFR_L861Q 0 | EGFR_T790M 0 | EPHA2 = 0 | ERBB3 = 0 | [1] 0

CC(C)=CC(=O)CCC(=O)N1CCN(Cc2cc3nc(-c4cccc5[nH]ncc45)nc(N4CCOCC4)c3s2)CC1 (10 µM)
active: CDK9 = 1 | CSNK1A1 = 1 | EGFR_G719S 1
inactive: CDK7 = 0 | CHEK2 = 0 | CSF1R 0 | CSK 0 | CSNK1D 0 | DDR1 = 0 | DYRK1B 0 | DYRK2 = 0 | EGFR 0 | EGFR_G719S_T790M 0 | EGFR_L718V 0 | EGFR_L858R 0 | EGFR_L861Q 0 | EGFR_T790M 0 | EPHA2 = 0 | ERBB3 = 0 | [1] 0

CC(C)(NS(=O)(=O)c1ccc2c(Cl)cnc(N=C(N)N)c2c1)C(=O)O (10 µM)
inactive: CDK7 = 0 | CDK9 = 0 | CHEK2 = 0 | CSF1R 0 | CSK 0 | CSNK1A1 = 0 | CSNK1D 0 | DDR1 = 0 | DYRK1B 0 | DYRK2 = 0 | EGFR 0 | EGFR_G719S 0 | EGFR_G719S_T790M 0 | EGFR_L718V 0 | EGFR_L858R 0 | EGFR_L861Q 0 | EGFR_T790M 0 | EPHA2 = 0 | ERBB3 = 0 | [1] 0

CN1CCN(c2ccc(C(=O)Nc3cc(-c4cccc(NS(=O)(=O)c5ccccc5)c4)[nH]n3)cc2)CC1 [BPR1J-097 Hydrochloride] (2.5 µM)
inactive: CDK7 = 0 | CDK9 = 0 | CHEK2 = 0 | CSF1R 0 | CSK 0 | CSNK1A1 = 0 | CSNK1D 0 | DDR1 = 0 | DYRK1B 0 | DYRK2 = 0 | EGFR 0 | EGFR_G719S 0 | EGFR_G719S_T790M 0 | EGFR_L718V 0 | EGFR_L858R 0 | EGFR_L861Q 0 | EGFR_T790M 0 | EPHA2 = 0 | ERBB3 = 0 | [1] 0

COC1(c2sc3c(N4CCOCC4)nc(-c4cnc(N)nc4)nc3c2C)COC1 (2.5 µM)
inactive: CDK7 = 0 | CDK9 = 0 | CHEK2 = 0 | CSF1R 0 | CSK 0 | CSNK1A1 = 0 | CSNK1D 0 | DDR1 = 0 | DYRK1B 0 | DYRK2 = 0 | EGFR 0 | EGFR_G719S 0 | EGFR_G719S_T790M 0 | EGFR_L718V 0 | EGFR_L858R 0 | EGFR_L861Q 0 | EGFR_T790M 0 | EPHA2 = 0 | ERBB3 = 0 | [1] 0

O=C1c2ccc(Nc3ccc(F)cc3F)cc2CCc2ccc(OC[C@H](O)CO)cc21 [Skepinone-L] (2.5 µM)
inactive: CDK7 = 0 | CDK9 = 0 | CHEK2 = 0 | CSF1R 0 | CSK 0 | CSNK1A1 = 0 | CSNK1D 0 | DDR1 = 0 | DYRK1B 0 | DYRK2 = 0 | EGFR 0 | EGFR_G719S 0 | EGFR_G719S_T790M 0 | EGFR_L718V 0 | EGFR_L858R 0 | EGFR_L861Q 0 | EGFR_T790M 0 | EPHA2 = 0 | ERBB3 = 0 | [1] 0

COc1cc2c[n+](C)c3c4cc5c(cc4ccc3c2cc1OC)OCO5 [Nitidine (chloride)] (2 µM)
inactive: CDK7 = 0 | CDK9 = 0 | CHEK2 = 0 | CSF1R 0 | CSK 0 | CSNK1A1 = 0 | CSNK1D 0 | DDR1 = 0 | DYRK1B 0 | DYRK2 = 0 | EGFR 0 | EGFR_G719S 0 | EGFR_G719S_T790M 0 | EGFR_L718V 0 | EGFR_L858R 0 | EGFR_L861Q 0 | EGFR_T790M 0 | EPHA2 = 0 | ERBB3 = 0 | [1] 0

CCn1c(=O)c(-c2ccc(-c3cncs3)cc2Cl)cc2cnc(Nc3ccc(N4CCN(C)CC4)cc3)nc21 (2.5 µM)
inactive: CDK7 = 0 | CDK9 = 0 | CHEK2 = 0 | CSF1R 0 | CSK 0 | CSNK1A1 = 0 | CSNK1D 0 | DDR1 = 0 | DYRK1B 0 | DYRK2 = 0 | EGFR 0 | EGFR_G719S 0 | EGFR_G719S_T790M 0 | EGFR_L718V 0 | EGFR_L858R 0 | EGFR_L861Q 0 | EGFR_T790M 0 | EPHA2 = 0 | ERBB3 = 0 | [1] 0

O=C(/C=C/c1ccc(O[C@@H]2O[C@H](CO)[C@@H](O)[C@H](O)[C@H]2O[C@@H]2OC[C@](O)(CO)[C@H]2O)cc1)c1ccc(O)cc1O [Isoliquiritin apioside] (10 µM)
inactive: CDK7 = 0 | CDK9 = 0 | CHEK2 = 0 | CSF1R 0 | CSK 0 | CSNK1A1 = 0 | CSNK1D 0 | DDR1 = 0 | DYRK1B 0 | DYRK2 = 0 | EGFR 0 | EGFR_G719S 0 | EGFR_G719S_T790M 0 | EGFR_L718V 0 | EGFR_L858R 0 | EGFR_L861Q 0 | EGFR_T790M 0 | EPHA2 = 0 | ERBB3 = 0 | [1] 0

C=CC(=O)Nc1cc2c(Nc3ccc(OCc4ccccn4)c(Cl)c3)ncnc2cc1OCCN1CCOCC1 (10 µM)
inactive: CDK9 = 0 | CHEK2 = 0 | CSF1R 0 | CSK 0 | CSNK1A1 = 0 | CSNK1D 0 | DYRK1B 0 | DYRK2 = 0 | EGFR 0 | EGFR_G719S 0 | EGFR_G719S_T790M 0 | EGFR_L718V 0 | EGFR_L858R 0 | EGFR_L861Q 0 | EGFR_T790M 0 | EPHA2 = 0 | ERBB3 = 0 | [1] 0
active: CDK7 = 1 | DDR1 = 1

NCc1ccc(Nc2ncc(F)c(Nc3ccccc3)n2)cc1 (10 µM)
inactive: CDK7 = 0 | CDK9 = 0 | CHEK2 = 0 | CSF1R 0 | CSK 0 | CSNK1A1 = 0 | CSNK1D 0 | DDR1 = 0 | DYRK1B 0 | DYRK2 = 0 | EGFR 0 | EGFR_G719S 0 | EGFR_G719S_T790M 0 | EGFR_L718V 0 | EGFR_L858R 0 | EGFR_L861Q 0 | EGFR_T790M 0 | EPHA2 = 0 | ERBB3 = 0 | [1] 0

CCOc1ccc(C(=O)Nc2ncc([N+](=O)[O-])s2)cc1 (10 µM)
inactive: CDK7 = 0 | CDK9 = 0 | CHEK2 = 0 | CSF1R 0 | CSK 0 | CSNK1A1 = 0 | CSNK1D 0 | DDR1 = 0 | DYRK1B 0 | DYRK2 = 0 | EGFR 0 | EGFR_G719S 0 | EGFR_G719S_T790M 0 | EGFR_L718V 0 | EGFR_L858R 0 | EGFR_L861Q 0 | EGFR_T790M 0 | EPHA2 = 0 | ERBB3 = 0 | [1] 0

Two entries picked at random from those above:
C=CC(=O)Nc1cc2c(Nc3ccc(OCc4ccccn4)c(Cl)c3)ncnc2cc1OCCN1CCOCC1 (10 µM)
inactive: CDK9 = 0 | CHEK2 = 0 | CSF1R 0 | CSK 0 | CSNK1A1 = 0 | CSNK1D 0 | DYRK1B 0 | DYRK2 = 0 | EGFR 0 | EGFR_G719S 0 | EGFR_G719S_T790M 0 | EGFR_L718V 0 | EGFR_L858R 0 | EGFR_L861Q 0 | EGFR_T790M 0 | EPHA2 = 0 | ERBB3 = 0 | [1] 0
active: CDK7 = 1 | DDR1 = 1

CCOc1ccc(C(=O)Nc2ncc([N+](=O)[O-])s2)cc1 (10 µM)
inactive: CDK7 = 0 | CDK9 = 0 | CHEK2 = 0 | CSF1R 0 | CSK 0 | CSNK1A1 = 0 | CSNK1D 0 | DDR1 = 0 | DYRK1B 0 | DYRK2 = 0 | EGFR 0 | EGFR_G719S 0 | EGFR_G719S_T790M 0 | EGFR_L718V 0 | EGFR_L858R 0 | EGFR_L861Q 0 | EGFR_T790M 0 | EPHA2 = 0 | ERBB3 = 0 | [1] 0
